PubChem BioAssay AID1259308 | NCATS – 2017
This is an unselected part of about 59,000 reagents tested. About 1,510 of all reagents (2.6%) were called active. 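Calls use total luciferase alone and ignore viability, so some active siRNAs may act by altering cell number.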 Unmarked entries are inactive. Reagents against one gene are numbered here.

- Purpose: 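Genes whose loss raises luciferase production in HEK293 cells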 (primary screen)
- Cells: human HEK293 embryonic kidney cells stably expressing firefly luciferase (HEK-CMV-Luc2-Hygro)
- Reagent: single siRNA against human genes, 0.8 pmol siRNA per well
- Duration: 72 h
- Detection: 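Luciferase light (ONE-Glo) measured on one replicate plate set and viability (CellTiter-Glo) on the other, scaled to a negative control siRNA, with robust z-scores and luciferase per cell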
- Scale: total luciferase, z-score and total luciferase, % of control: higher = more reporter protein produced; luciferase per cell, z-score: higher = more reporter output per viable cell; viable cells, % of control: higher = more viable cells
- Active means: 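An siRNA counts as active if its total luciferase robust z-score exceeds 3; genes with two or more such siRNAs out of three were retested with fresh siRNAs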
- Calls: active = raised luciferase; inactive = no rise

no.	gene symbol	siRNA no.	total luciferase, z-score	total luciferase, % of control	luciferase per cell, z-score	viable cells, % of control
1	RAD51C (RAD51 paralog C)	1	0.351	88.9	1.04	75.5
2	RAD51C (RAD51 paralog C)	2	2.19	125	1.36	97.9
3	RAD51C (RAD51 paralog C)	3	0.0278	82.4	0.828	74.1
4	TMEM81 (transmembrane protein 81)	1	1	102	0.49	100
5	TMEM81 (transmembrane protein 81)	2	0.145	84.8	0.273	88.1
6	TMEM81 (transmembrane protein 81)	3	-1.49	52.3	-0.907	74.1
7	SLC45A2	1	-0.185	78.2	-0.255	93.5
8	SLC45A2	2	-0.749	67	-0.595	87.6
9	SLC45A2	3	-2.3	36.1	-2.02	68.6
10	PWWP2B (PWWP domain containing 2B)	1	-2.03	41.5	-2.91	99.8
11	PWWP2B (PWWP domain containing 2B)	2	1.68	115	0.88	102
12	PWWP2B (PWWP domain containing 2B)	3	0.361	89.1	0.712	82.5
13	OLFM2 (olfactomedin 2)	1	-0.589	70.2	-0.384	86.7
14	OLFM2 (olfactomedin 2)	2	-1.05	61	-1.59	104
15	OLFM2 (olfactomedin 2)	3	0.308	88	0.813	79.4
16	SYCE3 (synaptonemal complex central element protein 3)	1	-0.279	76.3	-0.299	92.3
17	SYCE3 (synaptonemal complex central element protein 3)	2	-1.91	43.8	-2.28	89.1
18	SYCE3 (synaptonemal complex central element protein 3)	3	-0.358	74.8	0.0097	83.3
19	HLA-A (major histocompatibility complex, class I, A)	1	-0.488	72.2	-0.0617	82
20	HLA-A (major histocompatibility complex, class I, A)	2	0.524	92.3	1.05	78.1
21	HLA-A (major histocompatibility complex, class I, A)	3	-1.09	60.3	-1.67	105
22	DNASE2B (deoxyribonuclease 2 beta)	1	0.881	99.4	0.807	89.8
23	DNASE2B (deoxyribonuclease 2 beta)	2	0.215	86.2	1.54	64.1
24	DNASE2B (deoxyribonuclease 2 beta)	3	-0.307	75.8	-0.758	103
25	HEPHL1 (hephaestin like 1)	1	-1.2	58.1	-1.41	94.2
26	HEPHL1 (hephaestin like 1)	2	0.718	96.2	0.199	102
27	HEPHL1 (hephaestin like 1)	3	-0.0794	80.3	-0.459	101
28	BCAR3 (BCAR3 adaptor protein, NSP family member)	1	-0.314	75.6	-0.37	93.2
29	BCAR3 (BCAR3 adaptor protein, NSP family member)	2	-0.96	62.8	-0.963	90.4
30	BCAR3 (BCAR3 adaptor protein, NSP family member)	3	-0.0353	81.2	0.61	77.3
31	TMEM164 (transmembrane protein 164)	1	0.263	87.1	-0.103	100
32	TMEM164 (transmembrane protein 164)	2	-0.591	70.1	-0.278	84.3
33	TMEM164 (transmembrane protein 164)	3	-0.649	69	0.411	69.2
34	ACER2 (alkaline ceramidase 2)	1	2.5	132	2.26	81.2
35	ACER2 (alkaline ceramidase 2)	2	-0.7	68	-0.565	88.1
36	ACER2 (alkaline ceramidase 2)	3	-0.626	69.4	-0.469	87.8
37	MS4A2 (membrane spanning 4-domains A2)	1	3.54 (active)	152	2.57	86.5
38	MS4A2 (membrane spanning 4-domains A2)	2	0.167	85.2	-0.22	101
39	MS4A2 (membrane spanning 4-domains A2)	3	1.88	119	0.625	113
40	EXD1 (exonuclease 3'-5' domain containing 1)	1	0.584	93.5	0.0228	104
41	EXD1 (exonuclease 3'-5' domain containing 1)	2	0.235	86.6	0.23	91
42	EXD1 (exonuclease 3'-5' domain containing 1)	3	0.585	93.5	-0.361	115
43	PRPF40A (pre-mRNA processing factor 40A)	1	-0.948	63	0.358	64.1
44	PRPF40A (pre-mRNA processing factor 40A)	2	-0.291	76.1	0.516	74.2
45	PRPF40A (pre-mRNA processing factor 40A)	3	0.0582	83	0.803	75.1
46	SLC22A9	1	0.437	90.6	-0.0293	102
47	SLC22A9	2	0.379	89.4	-0.283	108
48	SLC22A9	3	-0.54	71.1	-0.257	85.1
49	AVPR1A (arginine vasopressin receptor 1A)	1	1.09	104	0.654	97.5
50	AVPR1A (arginine vasopressin receptor 1A)	2	0.97	101	0.171	108
51	AVPR1A (arginine vasopressin receptor 1A)	3	-3.77	6.93	-7.94	62.7
52	PLXNA2 (plexin A2)	1	-1.2	58	-0.495	73.8
53	PLXNA2 (plexin A2)	2	-0.386	74.2	-0.216	87.8
54	PLXNA2 (plexin A2)	3	-0.146	79	0.52	77
55	CXCL1 (C-X-C motif chemokine ligand 1)	1	0.506	91.9	0.418	92
56	CXCL1 (C-X-C motif chemokine ligand 1)	2	0.329	88.4	0.363	89.8
57	CXCL1 (C-X-C motif chemokine ligand 1)	3	0.0963	83.8	-0.489	107

7 successive records already listed, quoted:
no.	gene symbol	siRNA no.	total luciferase, z-score	total luciferase, % of control	luciferase per cell, z-score	viable cells, % of control
44	PRPF40A (pre-mRNA processing factor 40A)	2	-0.291	76.1	0.516	74.2
45	PRPF40A (pre-mRNA processing factor 40A)	3	0.0582	83	0.803	75.1
46	SLC22A9	1	0.437	90.6	-0.0293	102
47	SLC22A9	2	0.379	89.4	-0.283	108
48	SLC22A9	3	-0.54	71.1	-0.257	85.1
49	AVPR1A (arginine vasopressin receptor 1A)	1	1.09	104	0.654	97.5
50	AVPR1A (arginine vasopressin receptor 1A)	2	0.97	101	0.171	108
